Data published in publication doi:10.1101/2024.01.10.574961.
Results are given in words; binding and its absence hold for the method and conditions named. In cells and extracts the contact can be indirect. Some entries that bind do so weakly or less than the wild type. Sequences can lack the tags named with a protein. Each block holds one binder with its values, some of them ahead of it.

Columns and labels:
GST-Rgf1 (S. pombe) = molecular target: T1, GST-Rgf1 (S. pombe) (UniProt Q9Y7U6); test: pull-down
T1 sequence: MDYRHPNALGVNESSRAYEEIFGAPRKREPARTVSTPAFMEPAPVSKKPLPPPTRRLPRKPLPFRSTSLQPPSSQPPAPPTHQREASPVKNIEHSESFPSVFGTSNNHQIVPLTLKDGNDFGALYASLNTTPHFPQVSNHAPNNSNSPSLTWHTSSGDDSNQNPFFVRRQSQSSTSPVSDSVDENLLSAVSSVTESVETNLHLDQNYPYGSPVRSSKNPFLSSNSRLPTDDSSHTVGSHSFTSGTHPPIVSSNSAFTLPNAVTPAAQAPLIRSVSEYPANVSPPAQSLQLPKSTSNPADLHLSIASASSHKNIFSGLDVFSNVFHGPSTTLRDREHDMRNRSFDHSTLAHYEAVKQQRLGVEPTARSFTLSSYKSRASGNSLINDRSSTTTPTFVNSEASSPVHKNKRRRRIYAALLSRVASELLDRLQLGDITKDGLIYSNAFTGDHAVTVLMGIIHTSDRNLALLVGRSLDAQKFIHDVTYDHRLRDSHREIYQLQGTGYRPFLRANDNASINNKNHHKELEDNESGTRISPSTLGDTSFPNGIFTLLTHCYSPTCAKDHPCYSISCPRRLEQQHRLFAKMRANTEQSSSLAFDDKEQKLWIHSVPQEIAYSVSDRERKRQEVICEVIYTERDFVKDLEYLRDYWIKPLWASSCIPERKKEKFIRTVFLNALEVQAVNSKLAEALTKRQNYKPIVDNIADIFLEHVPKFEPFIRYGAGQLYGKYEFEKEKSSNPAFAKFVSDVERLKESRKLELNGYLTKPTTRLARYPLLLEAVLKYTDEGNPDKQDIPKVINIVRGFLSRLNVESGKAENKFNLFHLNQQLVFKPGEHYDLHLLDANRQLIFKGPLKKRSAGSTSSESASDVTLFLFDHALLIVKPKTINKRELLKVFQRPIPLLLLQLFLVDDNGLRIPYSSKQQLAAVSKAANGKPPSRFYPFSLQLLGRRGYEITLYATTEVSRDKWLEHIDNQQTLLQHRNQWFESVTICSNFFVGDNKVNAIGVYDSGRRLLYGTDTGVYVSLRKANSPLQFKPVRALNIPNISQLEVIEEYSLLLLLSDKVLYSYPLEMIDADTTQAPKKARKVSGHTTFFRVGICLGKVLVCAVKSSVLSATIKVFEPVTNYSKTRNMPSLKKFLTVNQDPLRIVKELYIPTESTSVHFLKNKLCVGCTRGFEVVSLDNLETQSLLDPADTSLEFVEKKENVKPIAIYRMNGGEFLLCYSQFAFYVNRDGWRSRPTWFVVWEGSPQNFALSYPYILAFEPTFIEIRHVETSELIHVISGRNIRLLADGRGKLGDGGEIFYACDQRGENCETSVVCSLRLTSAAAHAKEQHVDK

GST-Tea4 (S. pombe) = molecular target: T2, GST-Tea4 (S. pombe) (UniProt O60132); test: pull-down
T2 sequence: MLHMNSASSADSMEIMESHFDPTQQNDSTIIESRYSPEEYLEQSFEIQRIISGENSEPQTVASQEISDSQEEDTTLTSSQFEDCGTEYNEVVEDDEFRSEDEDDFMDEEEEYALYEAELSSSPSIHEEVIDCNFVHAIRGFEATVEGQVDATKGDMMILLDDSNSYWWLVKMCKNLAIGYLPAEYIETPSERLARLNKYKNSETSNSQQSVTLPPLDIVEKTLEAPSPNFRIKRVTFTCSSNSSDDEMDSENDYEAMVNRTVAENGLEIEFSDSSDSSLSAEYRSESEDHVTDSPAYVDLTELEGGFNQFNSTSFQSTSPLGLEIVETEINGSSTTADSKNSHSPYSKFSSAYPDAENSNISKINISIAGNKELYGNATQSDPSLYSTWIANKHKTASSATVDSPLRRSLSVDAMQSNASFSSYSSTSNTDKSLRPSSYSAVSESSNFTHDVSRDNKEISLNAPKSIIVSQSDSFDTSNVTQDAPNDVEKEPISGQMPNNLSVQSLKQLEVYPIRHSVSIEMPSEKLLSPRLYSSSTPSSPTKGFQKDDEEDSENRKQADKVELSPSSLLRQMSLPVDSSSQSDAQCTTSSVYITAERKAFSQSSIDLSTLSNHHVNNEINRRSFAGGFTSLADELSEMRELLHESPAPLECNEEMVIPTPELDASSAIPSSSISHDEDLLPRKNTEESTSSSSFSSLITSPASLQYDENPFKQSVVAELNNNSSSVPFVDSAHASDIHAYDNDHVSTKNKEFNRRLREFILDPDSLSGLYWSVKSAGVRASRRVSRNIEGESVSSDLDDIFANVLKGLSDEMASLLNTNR

binding (GST-Rgf1 (S. pombe)): binds
B1: Tea4-GFP (protein, UniProt O60132 1-821)
chain: T2 sequence

binding (GST-Tea4 (S. pombe)): binds
B2: Rgf1-GFP (protein, UniProt Q9Y7U6 1-1334)
chain: T1 sequence
